Hit rate of the full screen: of about 320,000 compounds, about 2,100 (0.66%) were called active. The inconclusive results got no clear call from the source; some entries with a clear call stand among them for comparison. The call rests on the fitted dose curve; in most records, active means well fitted inhibition curve with a large enough effect in the signal ratio, with a control signal flat (not every such curve was filed as active); inconclusive means small, poorly fitted or top-dose-only effect, or effect the other way, or a change in a side signal; inactive means flat fitted curve, though single readings scatter; the % refers to the signal ratio. Potencies beside an inconclusive call are fits to weak or partial responses and may not hold up.
experiment: qHTS Assay for Lipid Storage Modulators in Drosophila S3 Cells; conditions: BODIPY lipid droplet fluorescence, 18-24 h, cells fed with added oleic acid; lipid storage change, negative = inhibition: at 46.1 µM (top of the series) unless noted
Method in brief: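 Laser-scanning cytometry quantifies lipid droplet accumulation (500–530 nm total intensity; droplet/cell object ratio) in oleic acid-fed (400 uM added) Drosophila S3 cells treated with a concentration series. 20 uM Triacsin C defined 100% inhibition.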
On the % scale 0 is the no-effect control and ±100 the full control effect; potency means the concentration at half of the fitted maximal effect.

Structure (SMILES) | lipid storage change, negative = inhibition | Potency
COc1ccc(OCCSc2nc(-c3ccccc3)cc(=O)[nH]2)cc1 | inconclusive: -19.7% | 
CCOc1c(Br)cc(/C=N\NC(=O)c2ccccc2)cc1OC |  | inconclusive: 2.59 µM [activator, full curve]
CCCN1CCC(=O)N([C@H](CN=[N+]=[N-])CC(C)C)CC1 | inconclusive: 15.4% | 
O=C(NC1CCCC1)c1cccc2c1C(=O)c1ccc(/C=C/c3ccccc3)cc1S2(=O)=O | inconclusive: -79.7% | 
Cc1cc(S(=O)(=O)Nc2ccc(C(=O)N3CCN(C(=O)c4ccco4)CC3)cc2)ccc1F | inconclusive: 128% | 
COc1ccc(NC(=O)CN(C)CC(=O)Nc2ccc3c(c2)CCC3)cc1 | inconclusive: 8.39% | 
CN(CC(=O)Nc1ccc(Cl)cc1)CC(=O)Nc1ccc(C(N)=O)cc1 | inactive: 0.257% | 
CC(C)CCNC(=O)C1CCCN(S(=O)(=O)c2ccc(F)cc2)C1 (centres undefined) | inconclusive: -26.3% | 
COc1ccccc1NS(=O)(=O)c1ccc2c(c1)NC(=O)C(C)S2 (centres undefined) | inconclusive: -17.3% | 
COC(=O)c1cc(OC)c(OC)cc1NC(=O)c1cc(C(C)(C)C)oc1C | inconclusive: -19.2% | 
O=S(=O)(NC1c2cccc3cccc(c23)C1N1CCNCC1)c1ccc(Cl)cc1 (centres undefined) | inconclusive: -23.7% | 
CC(Sc1nc2cc([N+](=O)[O-])ccc2n1-c1cccc(C(F)(F)F)c1)C(=O)NC(N)=O (centres undefined) | inconclusive: 8.77% | 
O=C(COC(=O)COc1ccccc1[N+](=O)[O-])NC1CCCCC1 |  | inconclusive: 8.2 µM [falling, partial curve]
O=C(Nc1ccc(Cl)cc1)Nc1nc(-c2sccc2Br)cs1 | inconclusive: 20.6% | 
CC(C)C(=O)Nc1ccc(S(=O)(=O)Nc2ccccn2)cc1 | inconclusive: 81.9% | 
COc1ccc(N2CCN(C(CNC(=O)c3ccc4c(c3)OCO4)c3ccco3)CC2)cc1 (centres undefined) |  | inconclusive: 0.58 µM [activator, single point]
CC(OC(=O)c1cccs1)C(=O)NCc1ccco1 (centres undefined) | inconclusive: -7.73% | 
CC(C)(C)c1ccc(-c2n[nH]c(=S)n2C2CCCC2)cc1 | inconclusive: 44.7% | 
O=C(CSc1nnc(NC(=O)c2ccco2)s1)Nc1ccc2c(c1)OCCO2 | inconclusive: 17.7% [at 9.22 µM] | 
CC(C)Oc1ccc(C(=O)Nc2ccc3c(c2)n(C)c(=O)n3C)cc1 |  | active: 18.4 µM

Copied from the list.
`COc1ccc(NC(=O)CN(C)CC(=O)Nc2ccc3c(c2)CCC3)cc1` – lipid storage change, negative = inhibition: inconclusive: 8.39%
`CC(C)(C)c1ccc(-c2n[nH]c(=S)n2C2CCCC2)cc1` – lipid storage change, negative = inhibition: inconclusive: 44.7%
`O=C(CSc1nnc(NC(=O)c2ccco2)s1)Nc1ccc2c(c1)OCCO2` – lipid storage change, negative = inhibition: inconclusive: 17.7% [at 9.22 µM]

(listing goes on)

Structure (SMILES) | lipid storage change, negative = inhibition | Potency
N=C1C(c2nc3ccccc3s2)=C(O)CN1CCCO | inconclusive: 61.9% | 
CCOC(=O)c1nnn(-c2nn3nnnc3c3ccccc23)c1C | inconclusive: -41.1% | 
CC(=O)c1ccc(N(CC(=O)NC2CCCC2)C(=O)c2csnn2)cc1 | inconclusive: 47.5% | 
O=C(CCNC(=O)OCc1ccccc1)NC1CCCCCC1 |  | inconclusive: 9.2 µM [falling, partial curve]
CCN(CC)CCCNC(=O)c1ccc(N2CCCCC2)c(NS(=O)(=O)c2ccc(C)cc2)c1 | inconclusive: 5.82% | 
CCC(=O)Nc1cc(C)c(NC(=O)CCc2ccccc2)cn1 | inconclusive: -24.9% | 
CC(=O)Nc1ccc(S(=O)(=O)N2CCN(Cc3cccc([N+](=O)[O-])c3)CC2)cc1 | inconclusive: -25.8% [at 9.22 µM] | 
CC(C)S(=O)(=O)N1CCCC(C(=O)c2cccc(Cl)c2)C1 (centres undefined) | inconclusive: 17.1% | 
CCN1C(=O)S/C(=C\c2ccc(N3CCOCC3)cc2C)C1=O | inconclusive: -19% | 
Cc1nnsc1S(=O)(=O)Cc1ccccc1Cl | inconclusive: 37.2% | 
NC(=O)c1ccsc1NC(=O)c1ccco1 | inconclusive: -5.15% | 
COc1ccc(S(=O)(=O)CCC(=O)O)cc1 |  | inconclusive: 14.6 µM [falling, partial curve, poor fit]
Cc1cccc(C)c1NC(=O)COC(=O)C1Cc2ccccc2CN1C(=O)c1ccccc1 (centres undefined) | inconclusive: -47.8% | 
CC1(c2ccccc2)NC(=O)N(CC(=O)NNC(=O)c2cccc(Cl)c2)C1=O (centres undefined) |  | inconclusive: 7.31 µM [activator, partial curve]
Cc1ccc(-c2csc(/C(C#N)=C/Nc3ccc4c(c3)OCCO4)n2)cc1 | inconclusive: 0.32% | 
O=C1Cc2cc([N+](=O)[O-])ccc2N1c1c(Cl)cccc1Cl | inconclusive: -24.4% | 
O=C(Cc1ccc(Cl)cc1)Nc1ccccc1C(=O)N1CCCC1 | inconclusive: 59.5% | 
Cc1cc(C)n(-c2nc(Nc3ccccc3C)nc(-n3nc(C)cc3C)n2)n1 | inconclusive: -18.4% | 
COc1ccc(OCCNC(=O)CSc2ccc(C(F)(F)F)cc2[N+](=O)[O-])cc1 |  | inconclusive: 6.51 µM [activator, partial curve]

Reference: PubChem BioAssay AID2685 (National Center for Advancing Translational Sciences (NCATS), 2010)
